Experimental data as given in patent publication US20210061859A1, “NTCP Inhibitor” (The University of Tokyo, priority 2018, published 2021).
At least one peptide structure holds a part that was inferred or is arguable (an end, a ring closure or a residue). Some compounds share one wording; it may come from a single statement. Where a SMILES comes first, the peptide text is derived from it. Bridges are numbered along the chain shown (N, C = ends). [ ]: non-standard residue; d: D form. Sar = CNCC(=O)O

Legend:
[1] = target: T1, NTCP transporter activity in HepG2-hNTCP-C4 cells (Homo sapiens, UniProt Q14973); experiment: NTCP transporter assay ([3H]-taurocholic acid uptake); format: cell-based; conditions: peptide concentration of 30 μM
T1 construct: expressed in transfected cells; host or cells: HepG2-hNTCP-C4 cells
T1 sequence (Q14973 1-349): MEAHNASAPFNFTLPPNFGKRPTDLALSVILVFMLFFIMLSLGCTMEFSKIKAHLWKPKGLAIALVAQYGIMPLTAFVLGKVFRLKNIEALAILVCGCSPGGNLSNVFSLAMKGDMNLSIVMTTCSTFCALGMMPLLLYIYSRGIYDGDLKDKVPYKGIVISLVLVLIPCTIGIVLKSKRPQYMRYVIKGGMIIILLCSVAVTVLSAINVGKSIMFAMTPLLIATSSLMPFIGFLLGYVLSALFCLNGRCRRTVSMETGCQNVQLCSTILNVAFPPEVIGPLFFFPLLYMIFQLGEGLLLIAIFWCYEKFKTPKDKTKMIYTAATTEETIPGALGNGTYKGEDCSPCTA

HBV replication = HBV replication assay in Hep38.7-Tet cells; format: cell-based, hepatitis B virus; conditions: 30 μM each peptide, 6 days after tetracycline withdrawal
HBV genotype D = experiment: HBV infection assay in HepG2-hNTCP-C4 cells (HBs and HBc antigens); format: cell-based, hepatitis B virus; conditions: for HBs levels in the supernatant / intracellular HBc levels: 30 μM CsA or peptide; for intracellular HBc levels: immunofluorescence
HDV = HDV infection assay; format: cell-based, hepatitis D virus; conditions: HepG2-hNTCP-C4 cells, 30 μM peptide, 16 hours, then 6 days

SMILES | inhibition of NTCP transporter activity ([3H]-TCA uptake) [1] | HBV DNA levels (HBV replication) (HBV replication) | anti-HBV effect compared with peptides from the first screening (HBV genotype D) | HBs levels in the supernatant (HBV genotype D) | intracellular HBc levels (HBV genotype D) | infection by HDV (intracellular HDV RNA) (HDV)
CC[C@H](C)[C@@H]1NC(=O)[C@H](Cc2c[nH]c3ccccc23)NC(=O)[C@H]([C@@H](C)CC)NC(=O)[C@H](C(C)C)NC(=O)[C@H](Cc2ccc(O)cc2)NC(=O)CSC[C@@H](C(=O)N[C@H](C(N)=O)[C@@H](C)O)NC(=O)[C@H](Cc2ccc(O)cc2)NC(=O)[C@H](Cc2ccc(O)cc2)NC(=O)[C@H](Cc2ccccc2)NC(=O)[C@H](Cc2c[nH]cn2)NC(=O)[C@H](CC(N)=O)NC(=O)[C@@H]2CCCN2C(=O)[C@H](Cc2c[nH]c3ccccc23)NC1=O [WL4] ({CH2CO}-YVIWIWPNHFYYCT-NH2; thioether N-13) | no significant inhibition | rarely exhibited an effect | higher than that of D1 and D2 | decreased | decreased | significantly inhibited
CC[C@H](C)[C@@H]1NC(=O)[C@H](Cc2ccccc2)NC(=O)[C@@H](Cc2ccc(O)cc2)NC(=O)CSC[C@@H](C(=O)N[C@H](C(N)=O)[C@@H](C)O)NC(=O)[C@H](CO)NC(=O)[C@H](Cc2c[nH]c3ccccc23)NC(=O)[C@H]([C@@H](C)O)NC(=O)[C@H](Cc2c[nH]c3ccccc23)NC(=O)[C@H]([C@@H](C)O)NC(=O)[C@H](Cc2c[nH]c3ccccc23)NC(=O)[C@H]([C@@H](C)O)NC(=O)CN(C)C(=O)[C@H](C(C)C)NC(=O)[C@H]([C@@H](C)CC)NC1=O [WD1] ({CH2CO}-[dY]FIIV[Sar]TWTWTWSCT-NH2; thioether N-14) | no significant inhibition | rarely exhibited an effect | higher than that of D1 and D2 | decreased | decreased | significantly inhibited
CC[C@H](C)[C@@H]1NC(=O)[C@H](Cc2ccc(O)cc2)NC(=O)CSC[C@@H](C(=O)N[C@H](C(N)=O)[C@@H](C)O)NC(=O)[C@H](Cc2ccc(O)cc2)NC(=O)[C@H]([C@@H](C)CC)NC(=O)[C@H](C(C)C)NC(=O)[C@H](Cc2ccc(O)cc2)NC(=O)CNC(=O)[C@@H]2CCCN2C(=O)[C@H](Cc2c[nH]c3ccccc23)NC(=O)[C@H]([C@@H](C)CC)NC(=O)[C@H](Cc2c[nH]c3ccccc23)NC1=O [WL2] ({CH2CO}-YIWIWPGYVIYCT-NH2; thioether N-12) | no significant inhibition | rarely exhibited an effect | higher than that of D1 and D2 | decreased | decreased | significantly inhibited
